The exact form of at least one protein or probe is not confirmed. At least one verdict was read from the data and is not stated in words by the source. Where a protein sequence is shown, tags need not be part of it.
Biological target: T1, CTCF Y226C (UniProt P49711)
T1 sequence (looked up): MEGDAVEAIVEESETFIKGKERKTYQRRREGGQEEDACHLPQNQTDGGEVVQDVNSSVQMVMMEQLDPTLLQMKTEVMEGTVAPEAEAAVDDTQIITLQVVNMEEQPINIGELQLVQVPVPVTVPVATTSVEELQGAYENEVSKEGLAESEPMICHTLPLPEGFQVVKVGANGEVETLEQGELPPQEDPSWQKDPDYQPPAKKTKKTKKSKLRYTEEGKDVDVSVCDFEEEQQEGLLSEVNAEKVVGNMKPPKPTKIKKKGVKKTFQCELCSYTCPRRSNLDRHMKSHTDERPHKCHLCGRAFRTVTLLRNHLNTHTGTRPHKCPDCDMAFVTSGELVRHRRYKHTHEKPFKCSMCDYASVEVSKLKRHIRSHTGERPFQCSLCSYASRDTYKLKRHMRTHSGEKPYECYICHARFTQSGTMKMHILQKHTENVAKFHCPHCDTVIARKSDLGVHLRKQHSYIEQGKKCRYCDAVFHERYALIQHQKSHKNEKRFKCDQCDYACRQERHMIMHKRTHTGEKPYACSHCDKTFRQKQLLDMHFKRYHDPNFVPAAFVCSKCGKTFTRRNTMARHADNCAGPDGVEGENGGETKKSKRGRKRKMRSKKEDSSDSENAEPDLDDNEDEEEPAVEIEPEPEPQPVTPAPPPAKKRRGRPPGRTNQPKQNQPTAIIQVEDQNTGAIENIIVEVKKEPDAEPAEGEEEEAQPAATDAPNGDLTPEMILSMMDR
Assay: pull-down
Details: densitometry only in figure; TnT lysate protein with bead-bound DNA, 3 h at 4 C; beads washed before and after binding in PIB; protein translated in vitro; residues 1-727; protein details: FLAG (pcDNA3.1-FLAG); label: 5' biotin on S3 strand

AGGACCAGCAGGGGGCGCA (double strand) [core CTCF binding site probe]
binding result: binds
